From paper PMC10303925
No constants are given. Whether binding was seen depends on the method and setting. For part of these data: Binding seen in cells or lysates may run through a third protein. Some entries that bind do so weakly or less than the wild type. For part of these data: Tags and fused reporters may be left off the sequences shown.

Legend:
[1] = molecular target: T1, RAB27A(Asp7Tyr/Gln78Leu/Cys219Ala/Cys221Ala) (mouse) (UniProt Q9ERI2); experiment: two-hybrid; yeast cells with pGBD-C1-RAB27A(Gln78Leu/Cys219Ala/Cys221Ala) (WT or Asp7Tyr) and pAct2-MLPH/SLAC2-A-SHD or pACT2-SLP2-A-SHD; growth on selection medium SC-AHLW for four days (growth medium SC-LW two days)
T1 sequence: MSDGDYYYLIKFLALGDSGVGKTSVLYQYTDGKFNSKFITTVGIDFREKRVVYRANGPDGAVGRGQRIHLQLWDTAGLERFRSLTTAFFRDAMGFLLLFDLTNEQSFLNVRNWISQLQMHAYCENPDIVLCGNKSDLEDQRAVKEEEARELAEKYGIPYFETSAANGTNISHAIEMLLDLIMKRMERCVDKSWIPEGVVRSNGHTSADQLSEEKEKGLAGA

[2] = molecular target: T2, RAB27A(Gln78Leu/Cys219Ala/Cys221Ala) (WT in the yeast two-hybrid assay) (mouse) (UniProt Q9ERI2); experiment: as above
T2 sequence: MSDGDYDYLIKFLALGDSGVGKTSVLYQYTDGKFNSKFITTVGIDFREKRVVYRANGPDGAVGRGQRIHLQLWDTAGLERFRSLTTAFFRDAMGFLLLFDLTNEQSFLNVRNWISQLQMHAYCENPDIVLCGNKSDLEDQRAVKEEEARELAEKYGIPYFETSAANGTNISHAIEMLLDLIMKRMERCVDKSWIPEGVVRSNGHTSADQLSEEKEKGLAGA

FLAG-RAB27A (WT) (mouse) = molecular target: T3, FLAG-RAB27A (WT) (mouse) (UniProt Q9ERI2); experiment: co-IP; COS-7 cells expressing T7-MUNC13-4 and FLAG-RAB27A (WT or Asp7Tyr); anti-FLAG M2 magnetic beads; immunoblot with HRP-conjugated anti-T7 and anti-FLAG
T3 sequence: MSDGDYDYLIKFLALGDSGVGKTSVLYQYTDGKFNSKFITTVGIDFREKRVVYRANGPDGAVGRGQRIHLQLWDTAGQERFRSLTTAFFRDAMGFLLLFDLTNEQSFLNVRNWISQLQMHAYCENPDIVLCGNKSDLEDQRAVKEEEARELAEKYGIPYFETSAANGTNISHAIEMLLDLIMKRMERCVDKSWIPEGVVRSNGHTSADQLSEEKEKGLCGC

B1: SLP2-A-SHD (amino acids 1-87) (domain or fragment, UniProt Q99N50-1 1-87)
chain: MIDLSFLTEEEQDAILKVLQRDAALKRAEEERVRHLPEKIKDDQQLKNMSGQWFYEAKAKRHRDKIHGADIIRASMRRKKLPAAAEQ
- binding [1]: binds
- binding [2]: binds

B2: T7-MUNC13-4 (protein, UniProt B2RUP2 1-1085)
chain: MATHLSHPQRRPLLRQAIKIRRRRVRDLQDPPPQATQEVQVQSHHFSPEERDLLYEEALYTVLHRLGQPEPNHVKEASELLSYLQEAFQVQPEEHQQMLRRVRELEKPVFCLKATVKQAKGILGKDVSGFSDPYCLLGIEQKVGVAEGSPVSRRRQKAVVKHTIPEEETHRTQVKSQTLNPVWDETFILEFEDIANASFHLDMWDLDTVESVRQKLGELTDLHGLRRIFKEARKDKGQDDFLGNVVLRLQDLRCREDQWFPLEPCTETYPDRGQCHLQFQFIHKRRATAASRSQPSYTVHFHLLQQLVSHEVTQHQAGSTSWDASLSPQAVTILFLHATQKDLSDFHQSMAQWLAYSRLYQSLEFPSSCLLHPITSIEYQWIQGRLKAEQREELATSFTSLLAYGLSLIRKFRSVFPLSVSDSPSRLQSLLRVLVQMCKMKAFGELCPDSAPLSQLVSEALRMGTVEWFHLMQQHHQPMVQGILEAGKALLNLVQDVMGDLYQCRRTWNKIFHNVLKIDLFSMAFLELQWLVAKRVQDHTVAAGNLVSPDIGESLFQLYVSLKELCQLGPVPSDSREVLALDGFHRWFQPAIPSWLQKTYSVALERVQRAVQMDTLVPLGELTKHSTSAVDLSTCFAQISHTARQLDWPDPEEAFMITVKFVEDTCRLALVYCSLIKARARELSAVQKDQSQAADMLCVVVNNMEQLRLIIDKLPTQLAWEALEQRVGAVLEEGQLQNTLHAQLQGALAGLGHEIRTGVRTLAEQLEVGIATHIQKLIGVKESVLPEDAILPLMKFLEVKLCYMNTNLVQENFSSLLTLLWTHTLTVLVEVASSQRSSSLASGRLKVALQNLEVCFHAEGCGLPPEALHTDTFQALQNDLELQAASSRELIQKYFCSRIQQQAETTSERLGAVTVKVSYRASEQRLRVELLSASSLLPLDSNGSSDPFVQLTLEPRHEFPEVAPRETQKHKKELHPLFDETFEFLVPAEPCQKAWACLLLTVLDHDRLGADDLEGEAFLPLCRVPGLTDCAEPGEAPQMRLPLTYPAPNGDPILRLLESRKGDREAQAFVKLRRQRAKQASQHAP
- binding (FLAG-RAB27A (WT) (mouse)): binds
